From PMC8215223
These are yes or no findings as the source states them, for the method shown. Binding seen in cells or lysates may run through a third protein. Some entries that bind do so weakly or less than the wild type. Tags and fused reporters may be left off the sequences shown.

Key:
Assay in all cases: co-IP; HeLa extracts in Buffer H (sonicated, 15,000 x g); 2 hr at 4°C with A/G-agarose beads pre-linked with antibody; washed with coIP-washing buffer; Western blot; cells left non-treated, treated with 100 ng/mL nocodazole for 16 hr, or released from a thymidine block
[1] = target: T1, GFP-HOOK3 S238A (human) (UniProt Q86VS8)
T1 sequence: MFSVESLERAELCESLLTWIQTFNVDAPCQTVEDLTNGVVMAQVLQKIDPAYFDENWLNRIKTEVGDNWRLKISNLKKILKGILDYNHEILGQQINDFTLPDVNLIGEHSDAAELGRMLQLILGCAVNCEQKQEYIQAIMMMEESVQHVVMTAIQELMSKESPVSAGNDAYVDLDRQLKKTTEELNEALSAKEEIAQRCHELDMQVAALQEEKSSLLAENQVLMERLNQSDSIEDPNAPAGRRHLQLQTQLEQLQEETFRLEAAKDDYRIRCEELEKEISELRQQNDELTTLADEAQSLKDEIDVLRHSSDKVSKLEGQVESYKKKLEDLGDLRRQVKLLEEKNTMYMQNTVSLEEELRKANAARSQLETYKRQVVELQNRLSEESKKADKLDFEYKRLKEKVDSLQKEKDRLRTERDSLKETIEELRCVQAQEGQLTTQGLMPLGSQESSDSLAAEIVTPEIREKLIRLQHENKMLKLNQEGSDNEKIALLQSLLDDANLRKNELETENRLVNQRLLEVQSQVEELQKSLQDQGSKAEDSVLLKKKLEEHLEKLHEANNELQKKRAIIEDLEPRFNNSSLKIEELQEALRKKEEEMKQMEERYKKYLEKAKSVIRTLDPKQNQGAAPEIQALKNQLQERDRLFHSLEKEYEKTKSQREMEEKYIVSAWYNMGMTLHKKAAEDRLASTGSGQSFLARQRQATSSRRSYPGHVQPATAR

[2] = target: T2, GFP-WT-HOOK3 (human) (UniProt Q86VS8)
T2 sequence: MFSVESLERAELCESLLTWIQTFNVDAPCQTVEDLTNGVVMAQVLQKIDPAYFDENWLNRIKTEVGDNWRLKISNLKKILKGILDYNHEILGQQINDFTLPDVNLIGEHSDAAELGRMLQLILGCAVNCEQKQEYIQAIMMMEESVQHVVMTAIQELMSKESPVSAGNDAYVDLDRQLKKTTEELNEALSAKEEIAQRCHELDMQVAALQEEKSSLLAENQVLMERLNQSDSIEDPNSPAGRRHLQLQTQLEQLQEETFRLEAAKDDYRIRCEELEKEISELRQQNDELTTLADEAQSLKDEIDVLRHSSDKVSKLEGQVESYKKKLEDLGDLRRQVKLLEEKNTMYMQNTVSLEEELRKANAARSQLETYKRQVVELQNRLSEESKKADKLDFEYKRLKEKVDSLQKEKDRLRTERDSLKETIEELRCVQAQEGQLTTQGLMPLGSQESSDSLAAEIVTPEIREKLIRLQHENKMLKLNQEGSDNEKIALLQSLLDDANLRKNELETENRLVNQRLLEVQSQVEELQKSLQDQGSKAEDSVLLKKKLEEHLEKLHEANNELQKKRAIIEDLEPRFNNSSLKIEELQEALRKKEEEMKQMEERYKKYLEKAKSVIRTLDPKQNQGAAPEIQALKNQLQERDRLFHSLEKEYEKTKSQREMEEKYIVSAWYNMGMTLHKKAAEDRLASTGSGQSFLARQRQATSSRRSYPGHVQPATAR

[3] = target: T3, GFP-HOOK3 S238E (human) (UniProt Q86VS8)
T3 sequence: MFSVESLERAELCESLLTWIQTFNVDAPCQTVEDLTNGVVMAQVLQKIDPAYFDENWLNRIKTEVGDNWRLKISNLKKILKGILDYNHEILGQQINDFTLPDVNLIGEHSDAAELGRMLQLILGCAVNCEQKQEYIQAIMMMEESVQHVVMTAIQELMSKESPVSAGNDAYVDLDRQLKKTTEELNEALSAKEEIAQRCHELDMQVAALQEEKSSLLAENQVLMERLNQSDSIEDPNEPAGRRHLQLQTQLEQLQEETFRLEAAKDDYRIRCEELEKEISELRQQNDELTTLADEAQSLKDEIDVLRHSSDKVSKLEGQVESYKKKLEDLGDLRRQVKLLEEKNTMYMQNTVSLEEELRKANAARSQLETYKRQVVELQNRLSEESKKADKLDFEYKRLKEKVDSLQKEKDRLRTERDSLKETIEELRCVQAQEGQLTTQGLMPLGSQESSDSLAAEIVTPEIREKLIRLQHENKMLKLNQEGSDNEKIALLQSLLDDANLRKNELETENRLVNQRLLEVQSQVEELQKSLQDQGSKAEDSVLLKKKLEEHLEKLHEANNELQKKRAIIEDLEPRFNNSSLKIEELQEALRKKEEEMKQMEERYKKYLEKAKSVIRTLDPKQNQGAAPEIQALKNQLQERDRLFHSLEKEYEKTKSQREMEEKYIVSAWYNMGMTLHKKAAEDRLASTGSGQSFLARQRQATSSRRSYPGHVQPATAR

Measured: binding

B1: AuroraA (endogenous) (enzyme, UniProt O14965 1-403)
chain: MDRSKENCISGPVKATAPVGGPKRVLVTQQFPCQNPLPVNSGQAQRVLCPSNSSQRIPLQAQKLVSSHKPVQNQKQKQLQATSVPHPVSRPLNNTQKSKQPLPSAPENNPEEELASKQKNEESKKRQWALEDFEIGRPLGKGKFGNVYLAREKQSKFILALKVLFKAQLEKAGVEHQLRREVEIQSHLRHPNILRLYGYFHDATRVYLILEYAPLGTVYRELQKLSKFDEQRTATYITELANALSYCHSKRVIHRDIKPENLLLGSAGELKIADFGWSVHAPSSRRTTLCGTLDYLPPEMIEGRMHDEKVDLWSLGVLCYEFLVGKPPFEANTYQETYKRISRVEFTFPDFVTEGARDLISRLLKHNPSQRPMLREVLEHPWITANSSKPSNCQNKESASKQS
binds: all assays above
